How the values were obtained:
[1] = Plasma pharmacokinetics of ATV and metabolites in BDC and UCC dogs (LC-MS/MS); type: in vivo; settings: male, beagle, dog, po, 40 mg/kg, 40 mg/kg oral dose of ATV, ± standard deviation; for AUC: read-out: AUC0‐24h
Protocol: (§1) Plasma samples were collected at 0.5, 1, 2, 4, 6, and 24 hours postdose via cephalic vein or indwelling cephalic catheter. At the 6‐ and 24‐hours postdose time points, dogs were sedated with propofol at 6 mg/kg through an indwelling cephalic catheter. The dogs were then positioned in a dorsal‐recumbency with head elevated. Heart rate, rhythm, and arterial oxygen saturation were monitored throughout the procedure. After shaving and aseptically preparing the abdominal skin immediately caudal to the xiphoid process, an ultrasound exam of the gallbladder and cranial abdomen was done using a Mylab30cv ultrasound system with 9‐3 MHz micro‐convex transducer (Esoate, Indianapolis, IN). A 21‐gauge, 1.5‐inch needle, attached to a 5‐mL syringe, was inserted percutaneously through the abdominal wall into the gallbladder lumen. Effort was made to completely empty the gallbladder by aspiration (typically, 2‐5 mL bile was obtained). The needle and syringe were withdrawn and the bile samples were immediately saved on dry ice for later analysis. Dogs were allowed to recover in their home cages. Both plasma and bile samples were stored at −20°C until analysis.
(§2) Plasma samples were collected from dogs and monkeys at 0.5, 1, 2, 4, 6, and 24 hours postdose. Bile samples were collected at 0‐2 hours, 2‐4 hours, 4‐6 hours, 6‐8 hours, and 8‐24 hours intervals. Both plasma and bile samples were stored at −20°C until analysis.
(§3) Quantification of ATV and its metabolites in dog and monkey plasma and bile was performed using LC‐MS/MS‐based analysis. Standard curves and quality control (QC) samples defining the dynamic range of the bioanalytical method were prepared in commercially available control plasma and processed in the same fashion as the test samples. When dilutions were required, an aliquot of the sample was diluted into control plasma. […] The supernatant was then separated from the precipitated proteins after a 10‐minute centrifugation at 3500 rpm (2109× g) at 10°C and transferred to an autosampler 96‐well plate. An aliquot (10 µL) was injected onto the ultrahigh performance liquid chromatography (UHPLC) column for LC‐MS/MS‐based analysis. Samples from individual animals were not pooled prior to quantitative analysis.
(§4) The UHPLC system Nexera (Shimadzu, Japan) consisted of two pumps (LC30AD), a column heater (CTO‐30A), and an autosampler (SIL‐30AC) equipped with a cooling compartment that maintained samples at 15°C during analysis. The analytical column used was a BEH C18 2.1 mm × 50 mm, 1.7 µm (Waters Corporation, Milford, MA) at 50°C. The mobile phase, which consisted of 0.1% formic acid in water (A) and acetonitrile (B), was delivered at a flow rate of 0.6 mL/min. The initial conditions were 100% aqueous followed by 1‐minute gradient to 100% acetonitrile then hold for 0.4 minutes and back to initial conditions.
(§5) The UHPLC was interfaced to a Finnigan TSQ Quantum Ultra LC‐MS/MS tandem mass spectrometer (Thermo Electron Corporation) equipped with heated electrospray ionization (HESI‐II) interface operating in the positive ionization mode. Ultrahigh‐purity nitrogen was used as the sheath and auxiliary gases at flow rates of 55 L/h for sheath and 25 L/h for auxiliary. The desolvation temperature was 300°C and the source temperature was 350°C. The detection of each analyte was achieved through selected reaction monitoring. Ions representing the precursor mass‐to‐charge ratio (m/z) species for all analytes were selected in quadrupole 1 and collisionally dissociated with ultrahigh‐purity argon at a pressure of 1.5 × 10^−3 torr to generate specific product ions, which were subsequently monitored by quadrupole 2.
(§6) The predicted concentrations of more than 2/3 of the QCs were within 20% of nominal values, indicating acceptable assay performance.
The peak concentration (Cmax) and time for Cmax (Tmax) were recorded directly from experimental observations. […]

[2] = Concentration of ATV and metabolites in dog bile obtained by BDC and UCC (LC-MS/MS); type: in vivo, beagle dogs; settings: for Concentration in bile: BDC dogs, 40 mg/kg ATV orally, ± standard deviation
Protocol: as §1, §2, §3, §4, §5, §6

[3] = Plasma pharmacokinetics of ATV and metabolites in BDC and UCC monkeys (LC-MS/MS); type: in vivo, cynomolgus macaques; settings: male, cynomolgus, cynomolgus monkey, po, 30 mg/kg, 30 mg/kg oral dose of ATV, ± standard deviation; for AUC: read-out: AUC0‐24h
Protocol: (§7) Plasma and bile samples were collected. For bile collection monkeys were sedated with ketamine (8 mg/kg) and dexmedetomidine (0.05 mg/kg) intramuscularly. At the conclusion of the procedure, sedation was reversed with atipamezole (0.15 mg/kg) intramuscularly. All other procedures were the same as for the dog.
as §2
as §3, with “Standard” for “Quantification of ATV and its metabolites in dog and monkey plasma and bile was performed using LC‐MS/MS‐based analysis. Standard”
as §4
The UHPLC was interfaced to a Finnigan TSQ Quantum Ultra LC‐MS/MS tandem mass spectrometer (Thermo Electron Corporation) equipped with heated electrospray ionization (HESI‐II) interface operating in the positive ionization mode. Ultrahigh‐purity nitrogen was used as the sheath and auxiliary gases at flow rates of 55 L/h for sheath and 25 L/h for auxiliary. The desolvation temperature was 300°C and the source temperature was 350°C. The detection of each analyte was achieved through selected reaction monitoring. […]
The peak concentration (Cmax) and time for Cmax (Tmax) were recorded directly from experimental observations. The area under the curve from time 0 to 24 hours (AUC0‐24h) was calculated using a combination of linear and log trapezoidal summations.

[4] = Concentration of ATV and metabolites in monkey bile obtained by BDC and UCC (LC-MS/MS); type: in vivo, cynomolgus macaques; settings: for Concentration in bile: BDC monkeys, 30 mg/kg ATV orally
Protocol: as §7, §2, §3, §4, §5, §6

[5] = Metabolite profile of ATV in dog bile (LC-MS, UV 254 nm); type: in vivo, beagle dogs; settings: UCC and BDC
Protocol: Dog bile samples obtained by cholecystocentesis were pooled across animals (n = 3). Samples were mixed with an equal volume of citrate buffer (100 mmol/L) to make the final buffer concentration of 50 mmol/L. The mixture was mixed by vortexing for 1 minute and then centrifuged at 12 000× g for 15 minutes. An aliquot (5‐10 μL) of the supernatant was injected onto the UHPLC column for LC‐MS/MS‐based analysis.
The metabolite profile was obtained using LTQ‐Orbitrap coupled with Accela UHPLC and PDA (ThermoScientific, San Jose, CA) and a CTC PAL autosampler equipped with a cooling stack that maintained samples at 4°C during analysis. A 20‐minute UHPLC method was developed. The column was Acquity UPLC HSS T3 (Waters, Milford, MA) 2.1 × 150 mm, 1.8 µm. The column was maintained at a temperature of 55°C. The mobile phase consisted of 0.1% formic acid in water (solvent A) and 0.1% formic acid in acetonitrile (solvent B) at a flowrate of 600 µL/min with the following linear gradient conditions: 5% A for 0.5 minutes, 20‐60% B over 14 minutes, 95% B over 3 minutes, and 5% B isocratic for 2 minutes. Instrument settings were as follows: m/z range: 100 to 1000, capillary temperature was set at 280°C, nitrogen sheath gas flow rate 80 (arbitrary units), auxiliary gas 20, spray voltage 4.0 kV, and tube lens offset 80 V. In addition, UV wavelength was monitored at 254 nm.

[6] = Concentration of ATV and metabolites in monkey bile obtained by BDC and UCC (LC-MS/MS); type: in vivo, cynomolgus macaques; settings: UCC monkeys, 4‐5 h, 30 mg/kg ATV orally, ± standard deviation
[7] = dog; cited from earlier work
[8] = male, beagle, dog, bile, po, 40 mg/kg

CC(C)c1c(C(=O)Nc2ccccc2)c(-c2ccccc2)c(-c2ccc(F)cc2)n1CC[C@@H](O)C[C@@H](O)CC(=O)O [ATV, atorvastatin, reference compound]
Cmax ([1]; BDC dogs (n = 3)): 0.518 ± 0.301 µM
Tmax ([1]; BDC dogs (n = 3)): 1.7 ± 0.6 h
AUC ([1]; BDC dogs (n = 3)): 1.07 ± 0.279 µM·h
Cmax ([1]; UCC dogs (n = 3)): 0.642 ± 0.072 µM
Tmax ([1]; UCC dogs (n = 3)): 1.7 ± 0.6 h
AUC ([1]; UCC dogs (n = 3)): 2.35 ± 0.667 µM·h
Concentration in bile ([2]; 0‐2 h): 747 ± 729 µM
Concentration in bile ([2]; 2‐4 h): 1368 ± 457 µM
Concentration in bile ([2]; 4‐6 h): 585 ± 541 µM
Concentration in bile ([2]; 6‐8 h): 262 ± 229 µM
Concentration in bile ([2]; 8‐24 h): 42 ± 31 µM
concentration at 6 h [2, 8]: 456 ± 109 µM
concentration at 24 h [2, 8]: 188 ± 255 µM
Cmax ([3]; BDC monkeys (n = 4)): 0.083 ± 0.014 µM
AUC ([3]; BDC monkeys (n = 4)): 1.08 ± 0.571 µM·h
Cmax ([3]; UCC monkeys (n = 3)): 0.052 ± 0.026 µM
Tmax ([3]; UCC monkeys (n = 3)): 1 ± 0.9 h
AUC ([3]; UCC monkeys (n = 3)): 0.501 ± 0.243 µM·h
Concentration in bile ([4]; 0‐2 h, n = 2 due to blocked/displaced cannulas): 101 µM
Concentration in bile ([4]; 2‐4 h, ± standard deviation): 147 ± 53 µM
Concentration in bile ([4]; 4‐6 h, ± standard deviation): 194 ± 120 µM
Concentration in bile ([4]; 6‐8 h, n = 2 due to blocked/displaced cannulas): 114 µM
Concentration in bile ([4]; 8‐24 h, ± standard deviation): 114 ± 67 µM
concentration at 24 h ([4]; male, cynomolgus, cynomolgus monkey, bile, po, 30 mg/kg): 168 ± 45 µM
number of metabolites detected besides unchanged ATV [5]: 19
Concentration in bile [6]: 79 ± 42 µM
biliary excretion of ATV and its metabolites, share of the oral dose [7]: 33%
